The record followed here is patent US20160289737.

In this data set the test system is Vibhar transposase. In words: binding assay. The note with it: purified recombinant protein, protein details: US Application 20120301925.

For at least one entry, the source does not settle the construct or the ends of the probe.

For the sequence “AGATGTGATCAAGAGACAG (double strand) [adapter E8]”, for the setting “PS at several positions (FIG. 18), 20 pg human DNA, 80-180 ng/ml transposase, variant of adapter 78”, the binding result is “binds”.
Take CTGTCTCTTGATCACAAGT (double strand): the binding result (fragmentation/tagging of E. coli DNA, 5 mM MnCl2, Bicine pH 7.5, 46 or 56 C) is “binds”.
For “AGATGTGATCAAGAGACAG (double strand) [adapter 78]”, the binding result (20 pg human DNA, 80-180 ng/ml transposase, practically no nuclease degradation) is listed as “binds”.
